No constants are given. Whether binding was seen depends on the method and setting. Some entries that bind do so weakly or less than the wild type. Where a sequence is shown, tags or fusion partners need not be part of it.

By UniProt entry, the sequences of proteins in these tests, tags left out. Where a name states a change or a piece, a line headed by the entry shows the natural chain unless it says otherwise.
UniProt P04386: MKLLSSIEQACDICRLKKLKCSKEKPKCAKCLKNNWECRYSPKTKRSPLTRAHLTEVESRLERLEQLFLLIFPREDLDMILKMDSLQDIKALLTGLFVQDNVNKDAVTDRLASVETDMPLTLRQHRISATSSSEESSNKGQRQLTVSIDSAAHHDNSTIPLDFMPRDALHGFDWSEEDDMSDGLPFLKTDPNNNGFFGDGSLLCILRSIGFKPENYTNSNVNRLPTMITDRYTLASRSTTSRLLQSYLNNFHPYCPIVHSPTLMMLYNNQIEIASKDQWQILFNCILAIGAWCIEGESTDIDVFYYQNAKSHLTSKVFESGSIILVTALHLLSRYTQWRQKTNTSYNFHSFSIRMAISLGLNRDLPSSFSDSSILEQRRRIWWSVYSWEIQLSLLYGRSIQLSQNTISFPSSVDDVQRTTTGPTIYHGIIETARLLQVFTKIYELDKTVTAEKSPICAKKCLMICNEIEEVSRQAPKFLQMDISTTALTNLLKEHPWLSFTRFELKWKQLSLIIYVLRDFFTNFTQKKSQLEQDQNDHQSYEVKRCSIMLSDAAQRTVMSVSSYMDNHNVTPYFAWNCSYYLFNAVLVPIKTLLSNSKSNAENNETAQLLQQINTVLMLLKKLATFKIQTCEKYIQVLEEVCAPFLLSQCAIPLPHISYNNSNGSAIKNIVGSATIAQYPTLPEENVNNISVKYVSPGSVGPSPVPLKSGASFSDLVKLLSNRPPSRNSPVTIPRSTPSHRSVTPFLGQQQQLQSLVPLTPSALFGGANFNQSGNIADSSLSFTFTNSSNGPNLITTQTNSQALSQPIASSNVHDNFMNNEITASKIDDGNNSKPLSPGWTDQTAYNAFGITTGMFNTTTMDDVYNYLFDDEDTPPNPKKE

This is an account of results in patent publication US20130039933A1.

The target in assay [1] is T1, RPN1 (Ribophorin I) fused to the GAL4 activation domain (yeast; human) (UniProt P04843).
T1 sequence (looked up): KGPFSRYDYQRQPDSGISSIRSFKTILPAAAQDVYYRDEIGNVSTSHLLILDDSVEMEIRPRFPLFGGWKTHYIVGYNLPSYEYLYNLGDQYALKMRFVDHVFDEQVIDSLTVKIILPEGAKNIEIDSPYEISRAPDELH
The assay is described as follows: yeast two-hybrid.

In assay [2] the target is T1, RPN1 (Ribophorin I) fused to the GAL4 activation domain (yeast; human). The assay is described as follows: yeast two-hybrid screen with full length TREX1 as bait.

As for “Full length TREX1 fused to the GAL4 binding domain (pGBKT7-TREX1) (from UniProt P04386 1-147; Q9NSU2 1-369) (enzyme)”, the binding result in assay [1] and in assay [2] was “binds” in each case.
